Experimental data: paper PMC7660922
Results are given in words; binding and its absence hold for the method and conditions named. Binding seen in cells or lysates may run through a third protein. A result given as binding can be weak or reduced; the word gives no strength. For part of these data: Sequences can lack the tags named with a protein. Values belong to the molecule of their own block, whether it stands above or below them.

Assays:
CycB3-Myc (Drosophila) = biological target: T1, CycB3-Myc (Drosophila) (UniProt Q9I7I0); test: co-IP; immunopurification with anti-Myc 9E10 and PrG-coupled magnetic beads from lysates of 0-2 h Drosophila embryos; Western blot
T1 sequence: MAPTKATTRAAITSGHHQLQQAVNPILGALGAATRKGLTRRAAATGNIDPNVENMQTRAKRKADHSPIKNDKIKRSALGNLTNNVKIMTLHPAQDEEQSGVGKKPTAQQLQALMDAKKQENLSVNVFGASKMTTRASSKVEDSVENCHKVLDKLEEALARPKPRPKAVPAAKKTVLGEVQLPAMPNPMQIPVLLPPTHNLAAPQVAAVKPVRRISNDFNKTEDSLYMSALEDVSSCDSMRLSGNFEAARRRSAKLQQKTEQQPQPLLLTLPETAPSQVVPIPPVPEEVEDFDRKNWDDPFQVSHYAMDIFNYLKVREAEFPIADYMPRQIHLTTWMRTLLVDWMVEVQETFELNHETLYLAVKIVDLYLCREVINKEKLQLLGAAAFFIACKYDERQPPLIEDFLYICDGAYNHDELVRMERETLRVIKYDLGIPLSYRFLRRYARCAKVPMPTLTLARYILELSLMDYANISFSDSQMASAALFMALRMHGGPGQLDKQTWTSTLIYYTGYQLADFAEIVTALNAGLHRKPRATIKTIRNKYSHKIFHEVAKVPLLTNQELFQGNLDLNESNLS

CycB3-PrA (Drosophila) = biological target: T2, CycB3-PrA (Drosophila) (UniProt Q9I7I0); test: co-IP; Protein A affinity purification from lysates of co-transfected D-Mel cells on DynaBeads conjugated to rabbit IgG, 1 h at 4°C; lysis buffer 50 mM Tris-Cl pH 7.5, 150 mM NaCl, 0.5% Triton X-100; Western blot
T2 sequence: T1 sequence

GFP-APC6 (Drosophila) = test: co-IP; GFP affinity purification (GFP-trap nanobeads, 2 h) from lysates of early Drosophila embryos, with phosphatase inhibitors; Western blot
GFP-APC3 (Drosophila) = test: as above

Molecule: GFP-APC6 (Drosophila)
binding (CycB3-Myc (Drosophila)): binds

Molecule: Myc-APC3 (Drosophila)
binding (CycB3-PrA (Drosophila)): binds

Results, then the molecule that gave them:

binding (CycB3-Myc (Drosophila)): binds
Molecule: GFP-APC3 (Drosophila)

binding (CycB3-PrA (Drosophila)): binds
Molecule: Myc-APC2 (Drosophila)

binding (GFP-APC6 (Drosophila)): binds
binding (GFP-APC3 (Drosophila)): binds
B1: endogenous CycB3 (protein, UniProt Q9I7I0 1-575)
chain: T1 sequence
